Laboratory results taken from patent publication US12617803B2, “Condensed isoxazoline derivatives and their use as herbicides” (BASF SE, priority 2020, dated 2026).
Some of these results come from one statement about several compounds together. Some ranges recur; such a range may be that of the whole group of compounds.

How the values were obtained:
Assay type in all cases: in vivo
[1] = test system: ABUTH (Abutilon theophrasti); assay: greenhouse post-emergence herbicidal test; details: scale from 0 to 100
Text: (§1) The seeds of the test plants were sown separately for each species. For the pre-emergence treatment, the active ingredients, which had been suspended or emulsified in water, were applied directly after sowing by means of finely distributing nozzles. The containers were irrigated gently to promote germination and growth and subsequently covered with transparent plastic hoods until the test plants had rooted. This cover caused uniform germination of the test plants, unless this had been impaired by the active ingredients. For the post-emergence treatment, the test plants were first grown to a height of 3 to 15 cm, depending on the plant habit, and only then treated with the active ingredients which had been suspended or emulsified in water. For this purpose, the test plants were either sown directly and grown in the same containers, or they were first grown separately as seedlings and transplanted into the test containers a few days prior to treatment. Depending on the species, the test plants were kept at 10-25° C. or 20-35° C., respectively. The test period extended over 2 to 4 weeks. During this time, the test plants were tended, and their response to the individual treatments was evaluated. Evaluation was carried out using a scale from 0 to 100. 100 means no emergence of the test plants, or complete destruction of at least the aerial moieties, and 0 means no damage, or normal course of growth. A good herbicidal activity is given at values of 70 to 90 and a very good herbicidal activity is given at values of 90 to 100. The test plants used in the greenhouse experiments were of the following species: [table]

[2] = test system: ECHCG (Echinocloa crus-galli); assay: greenhouse post-emergence herbicidal test; details: 0.125 kg/ha, scale from 0 to 100
Text: as §1

SETVI (Setaria viridis) = assay: greenhouse post-emergence herbicidal test; details: scale from 0 to 100
Text: as §1

[3] = test system: AMARE (Amaranthus retroflexus); assay: greenhouse pre-emergence herbicidal test; details: scale from 0 to 100
Text: as §1

[4] = test system: ALOMY (Alopercurus myosuroides); assay: greenhouse post-emergence herbicidal test; details: 0.250 kg/ha, scale from 0 to 100
Text: as §1

With `COC(=O)[C@@H]1C=C[C@H](NC(=O)C23CCCC2C(c2cc(Cl)cc(Cl)c2)=NO3)C1` (some centres unmarked) [I1] the “herbicidal activity against ABUTH” value ([1]; 0.125 kg/ha) was “good (A good herbicidal activity is given at values of 70 to 90)”, the “herbicidal activity against ECHCG” value [2] was “very good (a very good herbicidal activity is given at values of 90 to 100)” and the “herbicidal activity against SETVI” value (SETVI (Setaria viridis); 0.125 kg/ha) was “good (A good herbicidal activity is given at values of 70 to 90)”.
`COC(=O)CC[C@H](C)NC(=O)C12CCCC1C(c1cc(Cl)cc(Cl)c1)=NO2` (some centres unmarked) [I2] was tested, and the “herbicidal activity against AMARE” value ([3]; pre-emergence, 0.125 kg/ha) was “good (A good herbicidal activity is given at values of 70 to 90)”, the “herbicidal activity against ECHCG” value [2] was “very good (a very good herbicidal activity is given at values of 90 to 100)” and the “herbicidal activity against SETVI” value (SETVI (Setaria viridis); 0.125 kg/ha) was “good (A good herbicidal activity is given at values of 70 to 90)”.
`COC(=O)[C@@H]1C=C[C@H](NC(=O)C23ON=C(c4cc(Cl)cc(Cl)c4)C2CCN3C(=O)OC(C)(C)C)C1` (stereo partly drawn) [I9, tert-butyl 3-(3,5-dichlorophenyl)-6a-[[(1R,4S)-4-methoxycarbonylcyclopent-2-en-1-yl]carbamoyl]-4,5-dihydro-3aH-pyrrolo[3,2-d]isoxazole-6-carboxylate] was tested, and the “herbicidal activity against AMARE” value ([3]; pre-emergence, 0,250 kg/ha) was “good (A good herbicidal activity is given at values of 70 to 90)”.
For `COC(=O)[C@@H]1C=C[C@H](NC(=O)C23NCCC2C(c2cc(Cl)cc(Cl)c2)=NO3)C1` (stereo partly drawn) [I10, methyl (1S,4R)-4-[3-(3,5-dichlorophenyl)-3aH,4H,5H,6H-pyrrolo[3,2-d][1,2]oxazole-6a-amido]cyclopent-2-ene-1-carboxylate], the “herbicidal activity against AMARE” value ([3]; pre-emergence, 0,250 kg/ha) was “very good (a very good herbicidal activity is given at values of 90 to 100)” and the “herbicidal activity against ALOMY” value [4] was “very good (a very good herbicidal activity is given at values of 90 to 100)”.
In the case of `COC(=O)[C@@H]1C=C[C@H](NC(=O)C23ON=C(c4cc(Cl)cc(Cl)c4)C2CCC3(C)C)C1` (some centres unmarked) [I12], the “herbicidal activity against AMARE” value ([3]; pre-emergence, 0.125 kg/ha) is reported as “good (A good herbicidal activity is given at values of 70 to 90)” and the “herbicidal activity against ABUTH” value ([1]; 0.125 kg/ha) is reported as “good (A good herbicidal activity is given at values of 70 to 90)”.
In the case of `COC(=O)[C@@H]1C=C[C@H](NC(=O)C23ON=C(c4cc(Cl)cc(Cl)c4)C2CCS3)C1` (stereo partly drawn) [I13, methyl (1S,4R)-4-[[3-(3,5-dichlorophenyl)-4,5-dihydro-3aH-thieno[3,2-d]isoxazole-6a-carbonyl]amino]cyclopent-2-ene-1-carboxylate], the “herbicidal activity against AMARE” value ([3]; pre-emergence, 0,250 kg/ha) is reported as “very good (a very good herbicidal activity is given at values of 90 to 100)”, the “herbicidal activity against ABUTH” value ([1]; 0.250 kg/ha) is reported as “good (A good herbicidal activity is given at values of 70 to 90)” and the “herbicidal activity against SETVI” value (SETVI (Setaria viridis); 0.250 kg/ha) is reported as “very good (a very good herbicidal activity is given at values of 90 to 100)”.
For `COC(=O)CC[C@H](C)NC(=O)C12CC1C(c1cc(F)cc(F)c1)=NO2` (stereo partly drawn) [I16, methyl (4S)-4-[[4-(3,5-difluorophenyl)-2-oxa-3-azabicyclo[3.1.0]hex-3-ene-1-carbonyl]amino]pentanoate], the “herbicidal activity against ALOMY” value [4] was “very good (a very good herbicidal activity is given at values of 90 to 100)”.
With `COC(=O)C1C=C[C@H](NC(=O)C23CC2C(c2cc(Cl)cc(Cl)c2)=NO3)C1` (some centres unmarked) [I17] the “herbicidal activity against ALOMY” value [4] was “very good (a very good herbicidal activity is given at values of 90 to 100)” and the “herbicidal activity against SETVI” value (SETVI (Setaria viridis); 0.250 kg/ha) was “very good (a very good herbicidal activity is given at values of 90 to 100)”.
`COC(=O)CCCNC(=O)C12OC=CC1C(c1cc(F)cc(F)c1)=NO2` (centres unmarked) [I18, methyl 4-[[3-(3,5-difluorophenyl)-3aH-furo[3,2-d]isoxazole-6a-carbonyl]amino]butanoate] was tested, and the “herbicidal activity against AMARE” value ([3]; pre-emergence, 0,250 kg/ha) was “good (A good herbicidal activity is given at values of 70 to 90)”.
For `COC(=O)[C@@H]1C=C[C@H](NC(=O)C23C=CCC2C(c2cc(F)cc(F)c2)=NO3)C1` (stereo partly drawn) [I19, methyl (1S,4R)-4-[[3-(3,5-difluorophenyl)-3a,4-dihydrocyclopenta[d]isoxazole-6a-carbonyl]amino]cyclopent-2-ene-1-carboxylate], the “herbicidal activity against ABUTH” value ([1]; 0.250 kg/ha) was “good (A good herbicidal activity is given at values of 70 to 90)” and the “herbicidal activity against ALOMY” value [4] was “very good (a very good herbicidal activity is given at values of 90 to 100)”.
